Laboratory results as given in article PMC7259711.
Results are given in words; binding and its absence hold for the method and conditions named. Some binding calls cover weakened binding; strength is not graded here.

Chains of the proteins cited; added tags and fusions are not shown.
UniProt P38398: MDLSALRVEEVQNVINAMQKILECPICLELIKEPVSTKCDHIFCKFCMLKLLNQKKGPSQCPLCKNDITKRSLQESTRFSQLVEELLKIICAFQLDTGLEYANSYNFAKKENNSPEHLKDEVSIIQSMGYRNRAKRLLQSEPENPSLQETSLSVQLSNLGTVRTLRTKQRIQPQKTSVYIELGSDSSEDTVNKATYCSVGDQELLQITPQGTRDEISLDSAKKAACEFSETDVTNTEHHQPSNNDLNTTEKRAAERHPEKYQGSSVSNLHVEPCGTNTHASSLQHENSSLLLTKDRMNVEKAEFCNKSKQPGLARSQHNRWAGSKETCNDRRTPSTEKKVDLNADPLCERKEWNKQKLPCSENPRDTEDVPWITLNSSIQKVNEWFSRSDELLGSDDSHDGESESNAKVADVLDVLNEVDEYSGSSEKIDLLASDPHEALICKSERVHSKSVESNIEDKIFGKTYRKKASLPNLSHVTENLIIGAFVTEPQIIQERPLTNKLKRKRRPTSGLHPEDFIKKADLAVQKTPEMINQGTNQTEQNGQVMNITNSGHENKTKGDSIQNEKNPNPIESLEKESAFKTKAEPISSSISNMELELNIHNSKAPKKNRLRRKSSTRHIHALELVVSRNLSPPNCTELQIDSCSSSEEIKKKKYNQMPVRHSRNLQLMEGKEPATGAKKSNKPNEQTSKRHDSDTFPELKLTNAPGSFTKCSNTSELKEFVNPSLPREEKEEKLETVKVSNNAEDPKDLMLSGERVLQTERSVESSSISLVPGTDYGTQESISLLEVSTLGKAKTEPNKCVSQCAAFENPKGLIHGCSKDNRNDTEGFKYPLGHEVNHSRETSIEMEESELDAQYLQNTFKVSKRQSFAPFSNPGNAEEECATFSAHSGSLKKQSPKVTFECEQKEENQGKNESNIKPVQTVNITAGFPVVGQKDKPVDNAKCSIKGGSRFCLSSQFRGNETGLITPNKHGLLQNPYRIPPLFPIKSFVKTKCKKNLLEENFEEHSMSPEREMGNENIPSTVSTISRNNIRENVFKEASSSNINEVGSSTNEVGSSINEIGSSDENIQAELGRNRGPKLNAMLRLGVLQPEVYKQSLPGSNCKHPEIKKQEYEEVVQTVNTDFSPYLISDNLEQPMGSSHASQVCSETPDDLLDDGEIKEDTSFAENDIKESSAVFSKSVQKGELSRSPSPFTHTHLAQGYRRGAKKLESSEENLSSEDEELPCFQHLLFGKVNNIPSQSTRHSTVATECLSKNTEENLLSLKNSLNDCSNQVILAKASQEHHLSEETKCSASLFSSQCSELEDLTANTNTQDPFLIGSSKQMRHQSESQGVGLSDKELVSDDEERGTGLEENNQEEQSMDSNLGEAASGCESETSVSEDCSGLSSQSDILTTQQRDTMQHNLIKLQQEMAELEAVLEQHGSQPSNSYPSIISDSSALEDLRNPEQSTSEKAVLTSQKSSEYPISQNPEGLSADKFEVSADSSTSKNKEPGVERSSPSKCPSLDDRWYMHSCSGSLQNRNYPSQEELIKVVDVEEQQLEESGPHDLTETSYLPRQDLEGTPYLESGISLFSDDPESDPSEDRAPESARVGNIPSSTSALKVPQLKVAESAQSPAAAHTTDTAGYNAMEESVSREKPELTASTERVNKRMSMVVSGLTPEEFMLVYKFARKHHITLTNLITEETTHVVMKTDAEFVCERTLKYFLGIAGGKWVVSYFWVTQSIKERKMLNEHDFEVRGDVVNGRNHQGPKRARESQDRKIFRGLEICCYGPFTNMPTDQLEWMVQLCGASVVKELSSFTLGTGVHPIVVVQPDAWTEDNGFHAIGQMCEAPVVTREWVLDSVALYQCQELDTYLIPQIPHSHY
UniProt Q9GZX5: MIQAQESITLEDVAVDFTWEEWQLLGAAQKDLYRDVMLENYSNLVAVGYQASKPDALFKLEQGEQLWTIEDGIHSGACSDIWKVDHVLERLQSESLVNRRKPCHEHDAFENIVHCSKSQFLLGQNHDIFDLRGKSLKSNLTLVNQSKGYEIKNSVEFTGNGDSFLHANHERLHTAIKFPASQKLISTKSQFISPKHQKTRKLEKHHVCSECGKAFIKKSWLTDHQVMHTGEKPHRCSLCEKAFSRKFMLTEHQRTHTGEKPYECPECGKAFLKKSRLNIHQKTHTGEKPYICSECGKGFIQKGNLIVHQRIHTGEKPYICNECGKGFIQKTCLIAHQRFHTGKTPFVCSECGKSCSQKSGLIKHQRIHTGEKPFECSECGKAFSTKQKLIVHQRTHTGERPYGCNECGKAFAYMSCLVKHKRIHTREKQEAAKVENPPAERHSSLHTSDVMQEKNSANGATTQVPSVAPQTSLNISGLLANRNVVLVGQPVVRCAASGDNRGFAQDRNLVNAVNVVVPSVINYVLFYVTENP

Molecular target: breast cancer 1 (BRCA1) (human (endogenous in MCF-7)) (UniProt P38398)
Experiment: ChIP/re-ChIP; MCF-7 cells; first round ChIP with BRCA1 antibody, eluted fractions incubated with ZBRK1 antibody; PFKP promoter region in the product verified by qPCR; IgG as negative control

binding: binds
Substance: Zinc finger and BRCA1-interacting protein with a KRAB domain 1 (ZBRK1) (from UniProt Q9GZX5 1-532)
